Results on three molecules are retold here after PubChem BioAssay AID226 (DTP/NCI, 2004).

The list shows only some results of the screen, not a fair sample: it covers a few groups of compounds. Other doses and runs of a compound may be missing. T/C: endpoint of the treated group in % of that of the vehicle group. Some entries give survivors of the animals treated and no T/C: the source holds a T/C of zero for them, seemingly a mark for toxic or unscored doses. Some doses without a T/C left all or most animals alive at the check, yet need not have been tolerated: the source hardly ever lists a survival T/C far under the control, and the zero likely stands for such cases as well. Survivors were counted at the toxicity check, usually on the fifth day, unless a day is given; later deaths do not show. Schedules are NCI's codes, taken here to give the interval after Q, in days (D) or hours (H), and the number of doses after X. Some entries hold several experiments; the results are listed from low to high. Where survival is the endpoint, this PubChem deposit counts one and a half times the control or more as active, and values a quarter to a half above the control carry no call in these data; other NCI protocols may use other cut-offs. Some T/C values are followed by the survivors on the day toxicity was checked, most often the fifth; where neither a count nor a note follows, no animal had died by that day.

The test system of the experiment is B6C3F1 mice, intracerebral ependymoblastoma, median survival T/C. Description: NCI In Vivo Anticancer Drug Screen. Data for tumor model Ependymoblastoma (intracerebral) in B6C3F1 mice. Particulars: T/C endpoint: median survival time, schedule: Q01DX005 (ip), higher T/C = longer survival. The protocol:
The antitumor activity of compounds was measured in mice bearing transplantable tumors. Survival or tumor size were measured and the results are expressed as the measurement made in the treated group (T) divided by the measurement made in the vehicle treated control group (C). The tumor model used in this assay is Ependymoblastoma (intracerebral) in B6C3F1 mice

Where [1] appears, read: dose: 16.0 mg/kg/injection, vehicle: Klucel (hydroxypropylcellulose) (HPC).
[2] abbreviates: dose: 256.0 mg/kg/injection, vehicle: saline with Tween-80.

In the case of `CN(N=O)C(=N)N[N+](=O)[O-]`, the T/C is 98 and 108 % of control (dose: 4.0 mg/kg/injection, vehicle: Klucel (hydroxypropylcellulose) (HPC)); 93 and 103 % of control (dose: 8.0 mg/kg/injection, vehicle: Klucel (hydroxypropylcellulose) (HPC)); 109 % of control under setting [1]. Moreover, the survivor count was 10 of 10 under setting [1]; 8 of 10 and 10 of 10 (dose: 32.0 mg/kg/injection, vehicle: Klucel (hydroxypropylcellulose) (HPC)); 4 of 10 (dose: 64.0 mg/kg/injection, vehicle: Klucel (hydroxypropylcellulose) (HPC)).

As to `NC(=O)c1[nH]cnc1/N=N\N(CCCl)CCCl`, the T/C is, setting by setting: (dose: 16.0 mg/kg/injection, vehicle: saline with Tween-80) 109, 111, 132 % of control; (dose: 32.0 mg/kg/injection, vehicle: saline with Tween-80, evaluated on day 40) 125 % of control; (dose: 32.0 mg/kg/injection, vehicle: saline with Tween-80, evaluated on day 60) 107, 123, 130 % of control; (dose: 64.0 mg/kg/injection, vehicle: saline with Tween-80, evaluated on day 40) 117 % of control; (dose: 64.0 mg/kg/injection, vehicle: saline with Tween-80, evaluated on day 60) 118, 123, 142 % of control; (dose: 128.0 mg/kg/injection, vehicle: saline with Tween-80, evaluated on day 40) 132 % of control. Also, the T/C (dose: 128.0 mg/kg/injection, vehicle: saline with Tween-80, evaluated on day 60) is 97, 127, 150 % of control [9 of 10 alive] and the T/C under setting [2] is 156 % of control [9 of 10 alive]. Besides, the survivor count runs as follows: under setting [2], 8 of 10, 9 of 10, 10 of 10; (dose: 512.0 mg/kg/injection, vehicle: saline with Tween-80) 0 of 10.

As for `CN(CCCl)/N=N/c1nc[nH]c1C(N)=O`, the T/C (dose: 16.0 mg/kg/injection, vehicle: saline) was 122 % of control; the T/C (dose: 32.0 mg/kg/injection, vehicle: saline) is 134 % of control; the T/C (dose: 64.0 mg/kg/injection, vehicle: saline) is 146 % of control; the T/C (dose: 128.0 mg/kg/injection, vehicle: saline) is 142 % of control; the T/C (dose: 256.0 mg/kg/injection, vehicle: saline) was 157 % of control.
